Our source for the binding values is article PMC9612522.

Sequences of proteins named here, by UniProt entry; tags and fusion partners are left off.
UniProt O96013: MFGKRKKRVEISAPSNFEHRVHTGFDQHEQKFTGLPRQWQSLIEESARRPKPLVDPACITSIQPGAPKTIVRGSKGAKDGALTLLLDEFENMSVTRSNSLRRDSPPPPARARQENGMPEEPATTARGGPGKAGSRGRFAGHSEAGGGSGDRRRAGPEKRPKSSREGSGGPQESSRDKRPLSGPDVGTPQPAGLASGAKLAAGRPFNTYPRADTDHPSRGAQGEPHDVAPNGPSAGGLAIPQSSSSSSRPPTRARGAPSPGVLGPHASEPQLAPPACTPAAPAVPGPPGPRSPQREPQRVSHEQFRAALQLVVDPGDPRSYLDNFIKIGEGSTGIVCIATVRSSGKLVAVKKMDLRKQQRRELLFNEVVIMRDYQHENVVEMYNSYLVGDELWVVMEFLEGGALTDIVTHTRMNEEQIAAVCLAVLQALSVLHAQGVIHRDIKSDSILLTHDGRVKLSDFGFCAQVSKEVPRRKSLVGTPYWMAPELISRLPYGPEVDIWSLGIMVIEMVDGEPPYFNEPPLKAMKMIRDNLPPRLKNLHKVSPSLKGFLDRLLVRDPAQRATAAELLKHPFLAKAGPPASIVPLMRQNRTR

For the test, the target named is Flag-Pak4 (UniProt O96013). Description: co-IP; HEK293T cells (the legend says HEK293) co-expressing Flag-Pak4 and EGFP fusions; IP with anti-GFP or anti-Flag, immunoblot with anti-GFP or anti-Flag; lysis in 50 mM Tris-HCl pH 7.5, 150 mM NaCl, 2 mM EDTA, 1% NP-40, 4°C. For orientation: In western blotting, separated proteins are transferred to a membrane and probed.

No constants are given. Whether binding was seen depends on the method and setting. In cells and extracts the contact can be indirect.

Consider EGFP-Inka2ΔiBox (from UniProt Q80VY2-2), for which the binding result is on record as “no binding”.
